Measurements reported in the supplement of paper PMC4604168 (melanoma cell lines).
Some of the results follow. Repeats are few or missing, and single values can be far off.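 The apoptosis fraction was the count of cleaved-PARP antibody-stained nuclei relative to all DNA-stained nuclei, imaged in 1,536-well plates. Screening doses were set so most cells survived, and baseline and induced cleaved-PARP levels vary greatly across cell lines.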

Tests used:
Assay in all cases: cleaved PARP positive nuclei fraction relative to DMSO control; melanoma cells; higher = more apoptosis
Conditions in all cases: library dose: low library concentration; 72 h
CBRC034 = tested on: CBRC034 (line from a melanoma biopsy)
COLO792 = tested on: COLO792
COLO800 = tested on: COLO800
COLO829 = tested on: COLO829
G361 = tested on: G361
IPC-298 = tested on: IPC-298
IST-MEL1 = tested on: IST-MEL1
LB2518-MEL = tested on: LB2518-MEL
LOXIMVI = tested on: LOXIMVI
MEL-HO = tested on: MEL-HO

SMILES	cleaved PARP positive nuclei fraction (CBRC034)	cleaved PARP positive nuclei fraction (COLO792)	cleaved PARP positive nuclei fraction (COLO800)	cleaved PARP positive nuclei fraction (COLO829)	cleaved PARP positive nuclei fraction (G361)	cleaved PARP positive nuclei fraction (IPC-298)	cleaved PARP positive nuclei fraction (IST-MEL1)	cleaved PARP positive nuclei fraction (LB2518-MEL)	cleaved PARP positive nuclei fraction (LOXIMVI)	cleaved PARP positive nuclei fraction (MEL-HO)
C[C@@H](N)c1ccc(C(=O)Nc2ccnc3[nH]ccc23)cc1 + C[C@]12O[C@H](C[C@]1(O)CO)n1c3ccccc3c3c4c(c5c6ccccc6n2c5c31)CNC4=O [Lestaurtinib] (first compound 0.4 µM, partner dose 0.004 µM)	269%	127%	92.5%	122%	185%	44.5%	175%	42.9%	121%	93.4%
Cn1sc(=O)n(Cc2ccccc2)c1=O + N.N.[Cl][Pt][Cl] [cisplatin] (first compound 0.4 µM, partner dose 1.6 µM)	59.2%	61%	90.4%	91.6%	67.4%	63.2%	128%	106%	114%	58%
CC[C@]1(O)C[C@H]2CN(CCc3c([nH]c4ccccc34)[C@@](C(=O)OC)(c3cc4c(cc3OC)N(C=O)[C@H]3[C@@](O)(C(=O)OC)[C@H](OC(C)=O)[C@]5(CC)C=CCN6CC[C@]43[C@@H]65)C2)C1 [vincristine] + C[C@]12O[C@H](C[C@]1(O)CO)n1c3ccccc3c3c4c(c5c6ccccc6n2c5c31)CNC4=O [Lestaurtinib] (first compound 0.0001 µM, partner dose 0.004 µM)	93.1%	177%	115%	109%	149%	43.7%	258%	113%	293%	53.2%
C[C@]12O[C@H](C[C@]1(O)CO)n1c3ccccc3c3c4c(c5c6ccccc6n2c5c31)CNC4=O [Lestaurtinib] + C[C@]1(c2nc3c(C(N)=O)cccc3[nH]2)CCCN1 [Veliparib] (first compound 0.004 µM, partner dose 1.4 µM)	60.2%	63.9%	133%	76.3%	82.3%	137%	114%	221%	43.2%	55.2%
CCCCCCCCc1ccc(CCC(N)(CO)CO)cc1 [fingolimod] + C[As](C)SC[C@H](NC(=O)CC[C@H](N)C(=O)O)C(=O)NCC(=O)O [Darinaparsin] (first compound 2 µM, partner dose 0.4 µM)	170%	58.2%	129%	86.4%	100%	96%	62.1%	192%	184%	103%
CS(=O)(=O)c1ccc(C(=O)Nc2ccc(Cl)c(-c3ccccn3)c2)c(Cl)c1 [vismodegib] + N.N.[Cl][Pt][Cl] [cisplatin] (first compound 1 µM, partner dose 1.6 µM)	121%	57.5%	39.9%	73.3%	59.8%	166%	64.8%	198%	110%	132%
C[As](C)SC[C@H](NC(=O)CC[C@H](N)C(=O)O)C(=O)NCC(=O)O [Darinaparsin] + Cn1nnc2c(C(N)=O)ncn2c1=O [temozolomide] (first compound 0.4 µM, partner dose 2 µM)	49.8%	124%	59%	81.6%	74.1%	258%	258%	116%	192%	57%
Cc1cc(Nc2cc(N3CCN(C)CC3)nc(Sc3ccc(NC(=O)C4CC4)cc3)n2)n[nH]1 [Tozasertib] + C[As](C)SC[C@H](NC(=O)CC[C@H](N)C(=O)O)C(=O)NCC(=O)O [Darinaparsin] (first compound 0.006 µM, partner dose 0.4 µM)	59.2%	86.9%	144%	130%	64.3%	90.8%	142%	123%	142%	35.2%
Cn1cc(C2=C(c3cn(C4CCN(Cc5ccccn5)CC4)c4ccccc34)C(=O)NC2=O)c2ccccc21 [Enzastaurin] + Nc1cccc2c1CN(C1CCC(=O)NC1=O)C2=O [lenalidomide] (first compound 0.8 µM, partner dose 1 µM)	133%	159%	129%	73.1%	173%	82.2%	43.5%	53.2%	296%	272%
Cc1cn(-c2cc(NC(=O)c3ccc(C)c(Nc4nccc(-c5cccnc5)n4)c3)cc(C(F)(F)F)c2)cn1 [nilotinib] + C[C@]12O[C@H](C[C@]1(O)CO)n1c3ccccc3c3c4c(c5c6ccccc6n2c5c31)CNC4=O [Lestaurtinib] (first compound 0.2 µM, partner dose 0.004 µM)	59.4%	77.5%	98.1%	71.2%	146%	43.4%	122%	164%	159%	125%
C[C@@H](N)c1ccc(C(=O)Nc2ccnc3[nH]ccc23)cc1 + Cn1cc(C2=C(c3cn(C4CCN(Cc5ccccn5)CC4)c4ccccc34)C(=O)NC2=O)c2ccccc21 [Enzastaurin] (first compound 0.4 µM, partner dose 0.8 µM)	73.3%	107%	88.1%	108%	115%	81.3%	54.2%	118%	157%	91.7%
Cn1cc(C2=C(c3cn(C4CCN(Cc5ccccn5)CC4)c4ccccc34)C(=O)NC2=O)c2ccccc21 [Enzastaurin] + OCc1c[nH]c2ccccc12 [Indole-3-carbinol] (first compound 0.8 µM, partner dose 0.8 µM)	84.8%	57.7%	171%	133%	121%	117%	114%	132%	65.5%	24.6%
C[C@]12O[C@H](C[C@]1(O)CO)n1c3ccccc3c3c4c(c5c6ccccc6n2c5c31)CNC4=O [Lestaurtinib] + COCC[n+]1c2c(n(Cc3cnccn3)c1C)C(=O)c1ccccc1C2=O [YM155] (first compound 0.004 µM, partner dose 0.0004 µM)	62.9%	163%	128%	104%	64.2%	226%	59.3%	107%	55.5%	52.1%
C[C@]12O[C@H](C[C@]1(O)CO)n1c3ccccc3c3c4c(c5c6ccccc6n2c5c31)CNC4=O [Lestaurtinib] + Cn1c(=O)n(-c2ccc(C(C)(C)C#N)cc2)c2c3cc(-c4cnc5ccccc5c4)ccc3ncc21 [NVP-BEZ235] (first compound 0.004 µM, partner dose 0.004 µM)	61.2%	114%	140%	109%	92.2%	130%	62.1%	52.1%	125%	52.1%
C[C@]12O[C@H](C[C@]1(O)CO)n1c3ccccc3c3c4c(c5c6ccccc6n2c5c31)CNC4=O [Lestaurtinib] + Nc1nc(F)nc2c1ncn2[C@@H]1O[C@H](CO)[C@@H](O)[C@@H]1O [fludarabine] (first compound 0.004 µM, partner dose 0.2 µM)	183%	91.5%	142%	87.5%	229%	90.7%	82.7%	111%	102%	141%
N.N.[Cl][Pt][Cl] [cisplatin] + CO[C@H]1C[C@@H]2CC[C@@H](C)[C@@](O)(O2)C(=O)C(=O)N2CCCC[C@H]2C(=O)O[C@H]([C@H](C)C[C@@H]2CC[C@@H](OCCO)[C@H](OC)C2)CC(=O)[C@H](C)/C=C(\C)[C@@H](O)[C@@H](OC)C(=O)[C@H](C)C[C@H](C)/C=C/C=C/C=C/1C [everolimus] (first compound 1.6 µM, partner dose 0.02 µM)	36.1%	178%	89.7%	92.5%	191%	322%	87.2%	137%	60.9%	193%
CCCCCCCCCCCCCCCCCCOP(=O)([O-])OC1CC[N+](C)(C)CC1 [Perifosine] + C[C@]12O[C@H](C[C@]1(O)CO)n1c3ccccc3c3c4c(c5c6ccccc6n2c5c31)CNC4=O [Lestaurtinib] (first compound 0.4 µM, partner dose 0.004 µM)	102%	96%	77.9%	54.8%	135%	177%	45.3%	228%	104%	164%
N#CC[C@H](C1CCCC1)n1cc(-c2ncnc3[nH]ccc23)cn1 [ruxolitinib] + C[As](C)SC[C@H](NC(=O)CC[C@H](N)C(=O)O)C(=O)NCC(=O)O [Darinaparsin] (first compound 1 µM, partner dose 0.4 µM)	109%	47.9%	71%	65.2%	115%	39.5%	31.7%	103%	73.8%	151%
N#CC[C@H](C1CCCC1)n1cc(-c2ncnc3[nH]ccc23)cn1 [ruxolitinib] + C[C@]12O[C@H](C[C@]1(O)CO)n1c3ccccc3c3c4c(c5c6ccccc6n2c5c31)CNC4=O [Lestaurtinib] (first compound 1 µM, partner dose 0.004 µM)	58.9%	89.9%	78.7%	93.9%	110%	89.6%	69.2%	83.8%	69.5%	84.7%
CCCS(=O)(=O)Nc1ccc(F)c(C(=O)c2c[nH]c3ncc(Cl)cc23)c1F + C[As](C)SC[C@H](NC(=O)CC[C@H](N)C(=O)O)C(=O)NCC(=O)O [Darinaparsin] (first compound 0.08 µM, partner dose 0.4 µM)	65.4%	83.1%	101%	115%	106%	173%	95.6%	78.6%	86.5%	225%
C=CCNC1=C2C[C@@H](C)C[C@H](OC)[C@H](O)[C@@H](C)/C=C(\C)[C@H](OC(N)=O)[C@@H](OC)/C=C\C=C(/C)C(=O)NC(=CC1=O)C2=O [Tanespimycin] + C[As](C)SC[C@H](NC(=O)CC[C@H](N)C(=O)O)C(=O)NCC(=O)O [Darinaparsin] (first compound 0.002 µM, partner dose 0.4 µM)	149%	136%	109%	72.7%	67.4%	175%	122%	111%	123%	93.6%

An excerpt of the results above:
SMILES	cleaved PARP positive nuclei fraction (CBRC034)	cleaved PARP positive nuclei fraction (COLO792)	cleaved PARP positive nuclei fraction (COLO800)	cleaved PARP positive nuclei fraction (COLO829)	cleaved PARP positive nuclei fraction (G361)	cleaved PARP positive nuclei fraction (IPC-298)	cleaved PARP positive nuclei fraction (IST-MEL1)	cleaved PARP positive nuclei fraction (LB2518-MEL)	cleaved PARP positive nuclei fraction (LOXIMVI)	cleaved PARP positive nuclei fraction (MEL-HO)
CCCCCCCCc1ccc(CCC(N)(CO)CO)cc1 [fingolimod] + C[As](C)SC[C@H](NC(=O)CC[C@H](N)C(=O)O)C(=O)NCC(=O)O [Darinaparsin] (first compound 2 µM, partner dose 0.4 µM)	170%	58.2%	129%	86.4%	100%	96%	62.1%	192%	184%	103%
CS(=O)(=O)c1ccc(C(=O)Nc2ccc(Cl)c(-c3ccccn3)c2)c(Cl)c1 [vismodegib] + N.N.[Cl][Pt][Cl] [cisplatin] (first compound 1 µM, partner dose 1.6 µM)	121%	57.5%	39.9%	73.3%	59.8%	166%	64.8%	198%	110%	132%
C[As](C)SC[C@H](NC(=O)CC[C@H](N)C(=O)O)C(=O)NCC(=O)O [Darinaparsin] + Cn1nnc2c(C(N)=O)ncn2c1=O [temozolomide] (first compound 0.4 µM, partner dose 2 µM)	49.8%	124%	59%	81.6%	74.1%	258%	258%	116%	192%	57%
Cc1cc(Nc2cc(N3CCN(C)CC3)nc(Sc3ccc(NC(=O)C4CC4)cc3)n2)n[nH]1 [Tozasertib] + C[As](C)SC[C@H](NC(=O)CC[C@H](N)C(=O)O)C(=O)NCC(=O)O [Darinaparsin] (first compound 0.006 µM, partner dose 0.4 µM)	59.2%	86.9%	144%	130%	64.3%	90.8%	142%	123%	142%	35.2%
Cn1cc(C2=C(c3cn(C4CCN(Cc5ccccn5)CC4)c4ccccc34)C(=O)NC2=O)c2ccccc21 [Enzastaurin] + Nc1cccc2c1CN(C1CCC(=O)NC1=O)C2=O [lenalidomide] (first compound 0.8 µM, partner dose 1 µM)	133%	159%	129%	73.1%	173%	82.2%	43.5%	53.2%	296%	272%
Cc1cn(-c2cc(NC(=O)c3ccc(C)c(Nc4nccc(-c5cccnc5)n4)c3)cc(C(F)(F)F)c2)cn1 [nilotinib] + C[C@]12O[C@H](C[C@]1(O)CO)n1c3ccccc3c3c4c(c5c6ccccc6n2c5c31)CNC4=O [Lestaurtinib] (first compound 0.2 µM, partner dose 0.004 µM)	59.4%	77.5%	98.1%	71.2%	146%	43.4%	122%	164%	159%	125%
